In this assay the test system is BDF1 mice, colon carcinoma 38 sc, T/C %. Put plainly: NCI In Vivo Anticancer Drug Screen. Data for tumor model Colon Carcinoma 38 (subcutaneous) in B6D2F1 (BDF1) mice. Put shortly:
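Ratio of survival or tumor size, compound-treated animals relative to vehicle controls, in tumor-bearing mice.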

Where [1] appears, read: T/C endpoint: median tumor weight (est.), dose: 200.0 mg/kg/injection, schedule: Q07DX002 (ip), vehicle: Klucel (hydroxypropylcellulose) (HPC), higher T/C = larger tumour.
Where [2] appears, read: T/C endpoint: median tumor weight (est.), dose: 50.0 mg/kg/injection, schedule: Q07DX002 (ip), vehicle: Klucel (hydroxypropylcellulose) (HPC), evaluated on day 20, higher T/C = larger tumour.
The mark [3] stands for this setting: T/C endpoint: median tumor weight (est.), dose: 200.0 mg/kg/injection, schedule: Q07DX002 (ip), vehicle: saline, higher T/C = larger tumour.

The list does not hold the whole screen: it gathers tests that were run many times, whatever their T/C, doses with no T/C, and many T/C values between a quarter and a half above the control. Further doses and runs are listed elsewhere. T/C is the treated group as % of the vehicle group. Schedules are NCI's codes, read here as Q, the interval in days (D) or hours (H), X, the number of doses. Some doses were run more than once; the results are listed from low to high. Some structures stand for samples that the source files as different forms (salt, stereo form or complex); doses refer to the form tested. Some T/C values carry the count of animals alive at the toxicity check (mostly the fifth day); without a count, all were alive then. Some entries give survivors of the animals treated and no T/C: the source files T/C as zero there, which appears to mark a toxic dose or a test without result, not a measured value. Some survivor counts are full or nearly so, which does not show that the dose was tolerated: the source hardly ever lists a survival T/C far under the control, and the zero likely stands for such cases as well. Survivors were counted at the toxicity check, usually on the fifth day, unless a day is given; later deaths do not show.

Take `O=S(=O)(SC(S(=O)(=O)c1ccccc1)S(=O)(=O)c1ccccc1)c1ccccc1`: the T/C is 146 % of control (T/C endpoint: median tumor weight (est.), dose: 200.0 mg/kg/injection, schedule: Q07DX002 (ip), vehicle: Klucel (hydroxypropylcellulose) (HPC), evaluated on day 20, higher T/C = larger tumour) and 137 % of control [9 of 10 alive on day 20] (T/C endpoint: median tumor weight (est.), dose: 800.0 mg/kg/injection, schedule: Q07DX002 (ip), vehicle: Klucel (hydroxypropylcellulose) (HPC), evaluated on day 20, higher T/C = larger tumour).
`c1ccc2c(c1)[As]=c1ccccc1=[As]2` (stereo not drawn): the T/C by setting is: (T/C endpoint: median tumor weight (est.), dose: 6.0 mg/kg/injection, schedule: Q07DX002 (ip), vehicle: saline, evaluated on day 20, higher T/C = larger tumour) 128 % of control; (T/C endpoint: median tumor weight (est.), dose: 12.0 mg/kg/injection, schedule: Q07DX002 (ip), vehicle: saline, evaluated on day 20, higher T/C = larger tumour) 142 % of control [9 of 10 alive on day 20]; (T/C endpoint: median tumor weight (est.), dose: 24.0 mg/kg/injection, schedule: Q07DX002 (ip), vehicle: saline, evaluated on day 20, higher T/C = larger tumour) 145 % of control.
Consider `COC1=NCN=C2SC=C(N)N=C12`, for which the T/C (T/C endpoint: median tumor weight (est.), dose: 25.0 mg/kg/injection, schedule: Q07DX003 (ip), vehicle: saline, evaluated on day 21, higher T/C = larger tumour) is 126 % of control.
For `CCN(CC)C(C)(C)C(=O)/C=C/c1ccccc1`, the survivor count (T/C endpoint: median tumor weight (est.), dose: 500.0 mg/kg/injection, schedule: Q07DX002 (ip), vehicle: saline with Tween-80, higher T/C = larger tumour) is 1 of 10 on day 20.
As to `CC1(C)CC(=O)C(CSC(=O)c2ccccc2)C(=O)C1`, the T/C was 127 [9 of 10 alive on day 20] and 143 % of control (T/C endpoint: median tumor weight (est.), dose: 6.25 mg/kg/injection, schedule: Q07DX002 (ip), vehicle: Klucel (hydroxypropylcellulose) (HPC), evaluated on day 20, higher T/C = larger tumour); 136 % of control [9 of 10 alive on day 20] (T/C endpoint: median tumor weight (est.), dose: 100.0 mg/kg/injection, schedule: Q07DX002 (ip), vehicle: Klucel (hydroxypropylcellulose) (HPC), evaluated on day 20, higher T/C = larger tumour). The survivor count under setting [1] is 0 of 10 on day 20 and 5 of 10 on day 20.
For the molecule `COc1cc2c(cc1O)N=C[C@@H]1CCC(O)N1C2=O` (mixture of isomers), the survivor count is on record as 6 of 10 on day 20 (T/C endpoint: median tumor weight (est.), dose: 16.0 mg/kg/injection, schedule: Q07DX002 (ip), vehicle: saline, higher T/C = larger tumour) and 0 of 10 on day 20 (T/C endpoint: median tumor weight (est.), dose: 32.0 mg/kg/injection, schedule: Q07DX002 (ip), vehicle: saline, higher T/C = larger tumour).
`O=C(CC(=O)C(F)(F)F)c1csc2ccccc12`: the T/C under setting [2] was 127 % of control. The survivor count (T/C endpoint: median tumor weight (est.), dose: 400.0 mg/kg/injection, schedule: Q07DX002 (ip), vehicle: Klucel (hydroxypropylcellulose) (HPC), higher T/C = larger tumour) is recorded as 0 of 10 on day 20.
With `CCN(CC)CCOCc1cccc2c(=O)cc(-c3ccccc3)oc12`, the survivor count under setting [1] is listed as 1 of 10 on day 20.
For `[Cl][Sn]([c]1ccccc1)[c]1ccccc1`, the T/C by setting is: (T/C endpoint: median tumor weight (est.), dose: 0.78 mg/kg/injection, schedule: Q07DX002 (ip), vehicle: saline, evaluated on day 20, higher T/C = larger tumour) 125 % of control; (T/C endpoint: median tumor weight (est.), dose: 1.56 mg/kg/injection, schedule: Q07DX002 (ip), vehicle: saline, evaluated on day 20, higher T/C = larger tumour) 128 % of control; (T/C endpoint: median tumor weight (est.), dose: 3.12 mg/kg/injection, schedule: Q07DX002 (ip), vehicle: saline, evaluated on day 20, higher T/C = larger tumour) 133 % of control. Besides, the survivor count runs as follows: (T/C endpoint: median tumor weight (est.), dose: 50.0 mg/kg/injection, schedule: Q09DX002 (ip), vehicle: saline, higher T/C = larger tumour) 2 of 10 on day 20; (T/C endpoint: median tumor weight (est.), dose: 100.0 mg/kg/injection, schedule: Q09DX002 (ip), vehicle: saline, higher T/C = larger tumour) 0 of 10 on day 20; (T/C endpoint: median tumor weight (est.), dose: 200.0 mg/kg/injection, schedule: Q09DX002 (ip), vehicle: saline, higher T/C = larger tumour) 0 of 10 on day 20; (T/C endpoint: median tumor weight (est.), dose: 400.0 mg/kg/injection, schedule: Q09DX002 (ip), vehicle: saline, higher T/C = larger tumour) 0 of 10 on day 20.
As to `C=C1C(=O)OC2/C=C(\CO)C(OC(C)=O)CC(O)/C(C)=C/C(OC(=O)C(C)CC)C12` (stereo not drawn), under setting [2], the T/C was 137 % of control [9 of 10 alive on day 20].
For the molecule `O=C(O)C1CSCN1` (stereo not drawn), the T/C was 145 % of control [9 of 10 alive on day 20] (T/C endpoint: median tumor weight (est.), dose: 12.5 mg/kg/injection, schedule: Q07DX002 (ip), vehicle: water, evaluated on day 20, higher T/C = larger tumour) and 130 % of control (T/C endpoint: median tumor weight (est.), dose: 100.0 mg/kg/injection, schedule: Q07DX002 (ip), vehicle: water, evaluated on day 20, higher T/C = larger tumour). Besides, the survivor count under setting [3] is reported as 3 of 10 on day 20 and the survivor count (T/C endpoint: median tumor weight (est.), dose: 200.0 mg/kg/injection, schedule: Q07DX002 (ip), vehicle: water, higher T/C = larger tumour) is given as 3 of 10 on day 20.
On to `CCN(CC)CCOC(=O)Cc1cccc2c(=O)cc(-c3ccc(Cl)cc3)oc12`, for which the survivor count is, setting by setting: under setting [3], 1 of 10 on day 20; (T/C endpoint: median tumor weight (est.), dose: 400.0 mg/kg/injection, schedule: Q07DX002 (ip), vehicle: saline with Tween-80, higher T/C = larger tumour) 0 of 10 on day 20.
In the case of `OC1CCCC2CCC[N-]C12.OC1CCCC2CCC[N-]C12.[Mn+2]` (stereo not drawn), the T/C (T/C endpoint: median tumor weight (est.), dose: 12.5 mg/kg/injection, schedule: Q07DX002 (ip), vehicle: Klucel (hydroxypropylcellulose) (HPC), evaluated on day 20, higher T/C = larger tumour) was 141 % of control; the T/C under setting [2] is 132 % of control; the T/C (T/C endpoint: median tumor weight (est.), dose: 400.0 mg/kg/injection, schedule: Q07DX002 (ip), vehicle: Klucel (hydroxypropylcellulose) (HPC), evaluated on day 20, higher T/C = larger tumour) is 126 % of control [8 of 10 alive on day 20].
As to `CCSC(=O)N1c2ccc(OC)cc2C=CC1C#N` (stereo not drawn), the T/C runs as follows: (T/C endpoint: median tumor weight (est.), dose: 50.0 mg/kg/injection, schedule: Q07DX002 (ip), vehicle: saline with Tween-80, evaluated on day 20, higher T/C = larger tumour) 129 % of control; (T/C endpoint: median tumor weight (est.), dose: 200.0 mg/kg/injection, schedule: Q07DX002 (ip), vehicle: saline with Tween-80, evaluated on day 20, higher T/C = larger tumour) 144 % of control; (T/C endpoint: median tumor weight (est.), dose: 2800.0 mg/kg/injection, schedule: Q07DX002 (ip), vehicle: saline with Tween-80, evaluated on day 20, higher T/C = larger tumour) 134 % of control [8 of 10 alive].
For `COc1ccc(/C=C/C(=O)c2cc(C(=O)O)c(OC)cc2OC)cc1OC`, under “T/C endpoint: median tumor weight (est.), dose: 200.0 mg/kg/injection, schedule: Q07DX002 (ip), vehicle: saline, evaluated on day 20, higher T/C = larger tumour”, the T/C is 137 and 141 % of control.
Take `OCCOCC(F)(F)F`: the T/C (T/C endpoint: median tumor weight (est.), dose: 25.0 mg/kg/injection, schedule: Q07DX002 (ip), vehicle: saline with Tween-80, evaluated on day 20, higher T/C = larger tumour) is 131 % of control.
Regarding `Cc1c2ccc3ccccc3c2c[n+]2ccccc12`, the T/C (T/C endpoint: median tumor weight (est.), dose: 10.0 mg/kg/injection, schedule: Q07DX002 (ip), vehicle: Klucel (hydroxypropylcellulose) (HPC), evaluated on day 20, higher T/C = larger tumour) is 147 % of control. In addition, the survivor count reads like this: (T/C endpoint: median tumor weight (est.), dose: 40.0 mg/kg/injection, schedule: Q07DX002 (ip), vehicle: Klucel (hydroxypropylcellulose) (HPC), higher T/C = larger tumour) 6 of 10 on day 20; (T/C endpoint: median tumor weight (est.), dose: 80.0 mg/kg/injection, schedule: Q07DX002 (ip), vehicle: Klucel (hydroxypropylcellulose) (HPC), higher T/C = larger tumour) 0 of 10 on day 20 and 1 of 10 on day 20.
With `O=C1c2ccccc2C(=O)c2c(NCCNCCO)ccc(NCCNCCO)c21`, the survivor count reads like this: (T/C endpoint: median survival time, dose: 10.0 mg/kg/injection, schedule: Q04DX004 (ip), vehicle: saline, higher T/C = longer survival) 10 of 10; (T/C endpoint: median tumor weight (est.), dose: 64.0 mg/kg/injection, schedule: Q07DX002 (ip), vehicle: acid diluted with saline, higher T/C = larger tumour) 5 of 10 on day 20; (T/C endpoint: median tumor weight (est.), dose: 64.0 mg/kg/injection, schedule: Q07DX003 (ip), vehicle: Klucel (hydroxypropylcellulose) (HPC), higher T/C = larger tumour) 6 of 10; (T/C endpoint: median tumor weight (est.), dose: 64.0 mg/kg/injection, schedule: Q07DX003 (ip), vehicle: water, higher T/C = larger tumour) 4 of 10; (T/C endpoint: median tumor weight (est.), dose: 128.0 mg/kg/injection, schedule: Q07DX003 (ip), vehicle: Klucel (hydroxypropylcellulose) (HPC), higher T/C = larger tumour) 1 of 10. For the same molecule, the T/C was 127 % of control (T/C endpoint: median tumor weight (est.), dose: 2.0 mg/kg/injection, schedule: Q07DX002 (ip), vehicle: acid diluted with saline, evaluated on day 20, higher T/C = larger tumour); 139 % of control [9 of 10 alive] (T/C endpoint: median tumor weight (est.), dose: 3.0 mg/kg/injection, schedule: Q07DX003 (ip), vehicle: saline with Tween-80, evaluated on day 20, higher T/C = larger tumour); 137 % of control (T/C endpoint: median tumor weight (est.), dose: 6.0 mg/kg/injection, schedule: Q07DX003 (ip), vehicle: saline with Tween-80, evaluated on day 20, higher T/C = larger tumour).
For `CCCCCCC/C=C/C(=O)OC1C(OC2C(OC(CCCCCCC)CC(=O)OC(CCCCCCC)CC(=O)O)OC(C)C(O)C2O)OC(C)C(O)C1O` (stereo not drawn), the T/C (T/C endpoint: median tumor weight (est.), dose: 14.0 mg/kg/injection, schedule: Q07DX002 (ip), vehicle: Klucel (hydroxypropylcellulose) (HPC), evaluated on day 20, higher T/C = larger tumour) is 140 % of control; the T/C (T/C endpoint: median tumor weight (est.), dose: 28.0 mg/kg/injection, schedule: Q07DX002 (ip), vehicle: Klucel (hydroxypropylcellulose) (HPC), evaluated on day 20, higher T/C = larger tumour) was 129 and 130 % of control; the T/C (T/C endpoint: median tumor weight (est.), dose: 112.0 mg/kg/injection, schedule: Q07DX002 (ip), vehicle: Klucel (hydroxypropylcellulose) (HPC), evaluated on day 20, higher T/C = larger tumour) was 126 % of control. Also, the survivor count runs as follows: (T/C endpoint: median tumor weight (est.), dose: 225.0 mg/kg/injection, schedule: Q07DX002 (ip), vehicle: Klucel (hydroxypropylcellulose) (HPC), higher T/C = larger tumour) 1 of 10 on day 20; (T/C endpoint: median tumor weight (est.), dose: 450.0 mg/kg/injection, schedule: Q07DX002 (ip), vehicle: Klucel (hydroxypropylcellulose) (HPC), higher T/C = larger tumour) 0 of 10 on day 20.

(Values after PubChem BioAssay AID212 (DTP/NCI, 2004).)
